# These are yes or no findings as the source states them, for the method shown. Binding seen in cells or lysates may run through a third protein. These calls come from enrichment with a bait or labelling near it, and not all partners need be listed.
# Amino acid sequences for entries named in this document (tags omitted).
# UniProt Q9UDY2: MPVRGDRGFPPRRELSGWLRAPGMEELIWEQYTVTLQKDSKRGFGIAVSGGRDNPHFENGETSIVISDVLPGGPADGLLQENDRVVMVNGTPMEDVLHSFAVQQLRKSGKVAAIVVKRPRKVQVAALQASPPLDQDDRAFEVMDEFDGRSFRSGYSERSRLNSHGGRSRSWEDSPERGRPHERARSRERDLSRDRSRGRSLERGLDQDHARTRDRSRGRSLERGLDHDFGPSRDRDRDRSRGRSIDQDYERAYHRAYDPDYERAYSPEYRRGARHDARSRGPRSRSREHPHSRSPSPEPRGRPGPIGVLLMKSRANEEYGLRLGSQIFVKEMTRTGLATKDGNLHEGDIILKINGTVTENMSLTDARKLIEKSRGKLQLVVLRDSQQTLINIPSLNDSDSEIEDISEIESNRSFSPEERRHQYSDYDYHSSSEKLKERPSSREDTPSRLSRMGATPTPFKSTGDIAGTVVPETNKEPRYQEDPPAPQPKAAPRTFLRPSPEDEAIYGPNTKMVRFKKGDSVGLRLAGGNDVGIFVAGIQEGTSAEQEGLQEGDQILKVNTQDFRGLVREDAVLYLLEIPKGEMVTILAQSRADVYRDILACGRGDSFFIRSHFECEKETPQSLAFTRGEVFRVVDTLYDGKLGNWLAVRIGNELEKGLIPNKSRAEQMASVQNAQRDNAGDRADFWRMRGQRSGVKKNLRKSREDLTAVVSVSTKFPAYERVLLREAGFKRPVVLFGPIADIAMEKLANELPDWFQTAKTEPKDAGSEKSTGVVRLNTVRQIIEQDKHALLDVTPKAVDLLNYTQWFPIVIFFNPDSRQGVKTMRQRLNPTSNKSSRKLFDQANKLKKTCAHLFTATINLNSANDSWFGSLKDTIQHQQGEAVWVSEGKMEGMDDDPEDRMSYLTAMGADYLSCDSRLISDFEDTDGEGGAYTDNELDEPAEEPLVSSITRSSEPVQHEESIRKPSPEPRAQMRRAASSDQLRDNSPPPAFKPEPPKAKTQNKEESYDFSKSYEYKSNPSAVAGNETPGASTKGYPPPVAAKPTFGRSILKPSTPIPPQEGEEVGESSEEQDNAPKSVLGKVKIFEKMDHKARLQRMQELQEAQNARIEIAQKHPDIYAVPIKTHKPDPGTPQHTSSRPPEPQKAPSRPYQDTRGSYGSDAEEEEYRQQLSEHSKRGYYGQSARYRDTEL
# UniProt P35222: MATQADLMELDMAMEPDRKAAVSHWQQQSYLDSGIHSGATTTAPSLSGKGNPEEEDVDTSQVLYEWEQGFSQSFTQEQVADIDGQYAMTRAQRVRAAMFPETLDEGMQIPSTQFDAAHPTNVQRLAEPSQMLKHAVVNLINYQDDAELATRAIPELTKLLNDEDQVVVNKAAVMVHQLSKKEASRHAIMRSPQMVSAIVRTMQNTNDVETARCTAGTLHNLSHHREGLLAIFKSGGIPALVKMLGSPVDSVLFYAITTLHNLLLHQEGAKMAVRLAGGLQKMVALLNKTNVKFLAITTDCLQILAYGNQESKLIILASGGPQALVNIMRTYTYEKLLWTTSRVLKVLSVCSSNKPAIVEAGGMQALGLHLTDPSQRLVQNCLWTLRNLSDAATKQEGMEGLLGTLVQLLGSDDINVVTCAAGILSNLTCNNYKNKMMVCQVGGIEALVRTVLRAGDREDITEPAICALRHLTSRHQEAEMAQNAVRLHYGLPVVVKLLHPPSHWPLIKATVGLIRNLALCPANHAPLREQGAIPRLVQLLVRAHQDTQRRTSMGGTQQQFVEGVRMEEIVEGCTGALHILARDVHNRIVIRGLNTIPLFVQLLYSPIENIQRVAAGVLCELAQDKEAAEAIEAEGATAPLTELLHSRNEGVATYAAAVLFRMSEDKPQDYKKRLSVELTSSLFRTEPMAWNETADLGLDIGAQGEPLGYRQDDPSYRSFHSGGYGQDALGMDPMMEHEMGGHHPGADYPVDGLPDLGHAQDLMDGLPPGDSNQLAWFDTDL
# UniProt Q07157: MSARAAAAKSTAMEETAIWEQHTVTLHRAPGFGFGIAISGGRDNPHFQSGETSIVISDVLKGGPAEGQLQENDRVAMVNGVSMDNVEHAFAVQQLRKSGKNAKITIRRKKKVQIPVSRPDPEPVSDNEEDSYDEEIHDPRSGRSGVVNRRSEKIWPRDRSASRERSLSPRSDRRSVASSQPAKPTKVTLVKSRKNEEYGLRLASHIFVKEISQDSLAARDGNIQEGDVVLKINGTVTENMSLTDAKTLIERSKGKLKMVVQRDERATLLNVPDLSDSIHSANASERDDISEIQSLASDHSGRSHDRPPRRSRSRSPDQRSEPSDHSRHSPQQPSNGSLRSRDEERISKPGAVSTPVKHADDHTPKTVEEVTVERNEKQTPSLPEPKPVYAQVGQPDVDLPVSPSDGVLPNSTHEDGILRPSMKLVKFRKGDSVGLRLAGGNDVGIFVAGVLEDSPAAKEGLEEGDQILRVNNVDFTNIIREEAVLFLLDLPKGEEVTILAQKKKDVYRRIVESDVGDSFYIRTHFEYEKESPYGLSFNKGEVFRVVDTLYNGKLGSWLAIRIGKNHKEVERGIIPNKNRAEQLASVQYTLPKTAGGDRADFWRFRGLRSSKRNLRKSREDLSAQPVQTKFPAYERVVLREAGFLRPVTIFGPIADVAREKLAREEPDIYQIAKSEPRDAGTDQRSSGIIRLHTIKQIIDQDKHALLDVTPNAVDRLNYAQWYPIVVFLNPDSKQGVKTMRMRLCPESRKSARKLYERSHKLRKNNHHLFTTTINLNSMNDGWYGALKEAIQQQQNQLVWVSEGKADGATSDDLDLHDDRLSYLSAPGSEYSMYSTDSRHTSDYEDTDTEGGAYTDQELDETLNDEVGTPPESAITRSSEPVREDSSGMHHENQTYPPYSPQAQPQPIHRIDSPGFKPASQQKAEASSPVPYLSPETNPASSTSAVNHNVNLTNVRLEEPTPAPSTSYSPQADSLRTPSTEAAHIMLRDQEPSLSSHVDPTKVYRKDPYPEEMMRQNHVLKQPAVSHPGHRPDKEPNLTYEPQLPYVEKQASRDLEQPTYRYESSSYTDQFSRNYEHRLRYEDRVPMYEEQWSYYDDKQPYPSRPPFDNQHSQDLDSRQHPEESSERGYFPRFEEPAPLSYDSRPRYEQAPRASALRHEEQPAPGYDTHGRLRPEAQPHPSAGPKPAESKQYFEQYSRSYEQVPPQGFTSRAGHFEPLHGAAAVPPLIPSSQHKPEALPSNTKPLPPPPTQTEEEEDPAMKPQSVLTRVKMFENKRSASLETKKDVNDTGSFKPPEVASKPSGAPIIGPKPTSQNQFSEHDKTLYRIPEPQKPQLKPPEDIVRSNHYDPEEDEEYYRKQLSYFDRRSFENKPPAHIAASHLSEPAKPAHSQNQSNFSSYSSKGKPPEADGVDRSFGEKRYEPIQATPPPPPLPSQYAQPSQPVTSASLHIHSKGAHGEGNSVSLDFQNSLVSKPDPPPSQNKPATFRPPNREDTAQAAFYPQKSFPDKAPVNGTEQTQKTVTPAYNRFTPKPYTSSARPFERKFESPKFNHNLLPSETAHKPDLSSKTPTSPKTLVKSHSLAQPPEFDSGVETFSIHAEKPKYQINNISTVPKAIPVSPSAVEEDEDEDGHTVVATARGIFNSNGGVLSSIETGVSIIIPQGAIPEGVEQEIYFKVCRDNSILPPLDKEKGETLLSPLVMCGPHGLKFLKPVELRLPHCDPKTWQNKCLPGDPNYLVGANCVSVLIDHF
# UniProt P27448: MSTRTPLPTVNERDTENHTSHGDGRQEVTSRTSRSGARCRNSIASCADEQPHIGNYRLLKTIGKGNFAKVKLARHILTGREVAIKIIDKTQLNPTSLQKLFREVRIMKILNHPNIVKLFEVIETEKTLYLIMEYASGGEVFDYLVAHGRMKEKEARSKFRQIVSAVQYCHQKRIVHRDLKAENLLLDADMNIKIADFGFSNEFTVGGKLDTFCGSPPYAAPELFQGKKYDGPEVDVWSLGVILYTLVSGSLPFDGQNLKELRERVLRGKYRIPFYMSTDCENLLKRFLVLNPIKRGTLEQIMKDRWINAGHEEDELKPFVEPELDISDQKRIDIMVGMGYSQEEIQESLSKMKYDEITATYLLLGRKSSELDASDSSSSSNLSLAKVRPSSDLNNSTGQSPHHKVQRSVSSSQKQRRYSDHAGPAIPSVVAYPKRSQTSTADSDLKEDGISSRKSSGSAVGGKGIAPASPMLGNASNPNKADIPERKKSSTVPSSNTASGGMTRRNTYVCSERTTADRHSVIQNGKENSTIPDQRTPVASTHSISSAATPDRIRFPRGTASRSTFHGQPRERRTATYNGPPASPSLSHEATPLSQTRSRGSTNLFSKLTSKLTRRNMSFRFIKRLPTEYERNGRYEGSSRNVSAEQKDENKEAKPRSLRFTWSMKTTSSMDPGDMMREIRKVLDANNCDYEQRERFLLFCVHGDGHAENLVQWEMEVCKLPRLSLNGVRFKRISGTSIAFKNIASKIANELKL
# UniProt Q7KZI7: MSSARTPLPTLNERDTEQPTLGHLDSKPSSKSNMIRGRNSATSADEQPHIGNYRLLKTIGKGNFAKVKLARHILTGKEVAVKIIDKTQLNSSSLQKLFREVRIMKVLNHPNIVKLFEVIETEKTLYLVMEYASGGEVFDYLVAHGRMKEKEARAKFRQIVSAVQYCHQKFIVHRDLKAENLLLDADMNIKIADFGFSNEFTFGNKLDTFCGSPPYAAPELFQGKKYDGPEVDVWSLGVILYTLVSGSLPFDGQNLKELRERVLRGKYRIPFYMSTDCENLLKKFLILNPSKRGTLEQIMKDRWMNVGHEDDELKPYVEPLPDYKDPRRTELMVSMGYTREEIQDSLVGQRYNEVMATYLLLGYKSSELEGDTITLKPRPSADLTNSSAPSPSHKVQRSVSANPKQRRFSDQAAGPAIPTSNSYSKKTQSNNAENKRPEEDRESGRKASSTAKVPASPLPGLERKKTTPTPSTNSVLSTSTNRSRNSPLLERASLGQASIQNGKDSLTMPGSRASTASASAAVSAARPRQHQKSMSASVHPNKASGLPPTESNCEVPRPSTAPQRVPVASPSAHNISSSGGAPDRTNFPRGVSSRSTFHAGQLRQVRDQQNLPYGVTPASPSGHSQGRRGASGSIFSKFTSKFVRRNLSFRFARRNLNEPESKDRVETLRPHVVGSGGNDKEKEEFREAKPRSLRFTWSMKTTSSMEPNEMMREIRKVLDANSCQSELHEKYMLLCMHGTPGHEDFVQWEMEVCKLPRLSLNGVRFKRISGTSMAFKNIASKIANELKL
# UniProt Q9P0L2: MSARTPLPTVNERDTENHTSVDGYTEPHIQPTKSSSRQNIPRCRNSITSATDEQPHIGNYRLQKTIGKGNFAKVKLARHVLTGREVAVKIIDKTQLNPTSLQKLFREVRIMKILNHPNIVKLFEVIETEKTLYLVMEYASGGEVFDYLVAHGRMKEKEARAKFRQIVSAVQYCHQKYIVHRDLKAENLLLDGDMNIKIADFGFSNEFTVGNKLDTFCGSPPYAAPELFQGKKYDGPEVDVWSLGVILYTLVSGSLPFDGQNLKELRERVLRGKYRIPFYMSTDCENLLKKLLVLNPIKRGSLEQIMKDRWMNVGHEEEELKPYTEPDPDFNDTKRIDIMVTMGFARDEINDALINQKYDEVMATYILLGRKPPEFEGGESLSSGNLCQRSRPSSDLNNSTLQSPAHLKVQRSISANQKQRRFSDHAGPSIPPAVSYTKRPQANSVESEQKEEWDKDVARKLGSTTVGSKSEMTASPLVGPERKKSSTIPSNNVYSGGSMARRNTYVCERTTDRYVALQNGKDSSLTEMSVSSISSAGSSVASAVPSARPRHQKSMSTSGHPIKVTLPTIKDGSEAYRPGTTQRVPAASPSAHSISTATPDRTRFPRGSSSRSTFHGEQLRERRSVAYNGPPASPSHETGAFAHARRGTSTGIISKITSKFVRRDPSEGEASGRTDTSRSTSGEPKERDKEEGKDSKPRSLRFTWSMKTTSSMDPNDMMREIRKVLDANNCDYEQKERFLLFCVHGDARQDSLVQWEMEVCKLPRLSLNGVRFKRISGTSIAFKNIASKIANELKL
# Target: T1, NUMB (bait of the NUMB coprecipitates analysed by mass spectrometry) (UniProt P49757)
# T1 sequence: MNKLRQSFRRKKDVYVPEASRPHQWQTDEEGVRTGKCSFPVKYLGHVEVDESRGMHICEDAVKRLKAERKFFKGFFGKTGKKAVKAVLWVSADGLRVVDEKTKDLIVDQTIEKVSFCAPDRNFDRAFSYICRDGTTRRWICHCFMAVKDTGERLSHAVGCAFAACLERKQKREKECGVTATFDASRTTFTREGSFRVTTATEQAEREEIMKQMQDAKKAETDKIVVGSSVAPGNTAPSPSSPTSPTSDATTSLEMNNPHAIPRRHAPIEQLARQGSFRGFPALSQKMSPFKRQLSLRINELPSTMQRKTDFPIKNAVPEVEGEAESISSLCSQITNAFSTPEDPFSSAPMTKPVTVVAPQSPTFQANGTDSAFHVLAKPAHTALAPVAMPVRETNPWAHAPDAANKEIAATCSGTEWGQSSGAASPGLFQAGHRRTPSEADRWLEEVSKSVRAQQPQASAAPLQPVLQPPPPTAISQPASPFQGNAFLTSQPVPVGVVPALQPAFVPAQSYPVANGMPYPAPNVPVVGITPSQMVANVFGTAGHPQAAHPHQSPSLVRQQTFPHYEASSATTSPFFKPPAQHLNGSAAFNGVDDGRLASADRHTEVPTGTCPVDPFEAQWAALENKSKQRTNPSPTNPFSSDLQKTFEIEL
# Test: affinity purification with mass spectrometry; NUMB coprecipitates analysed by mass spectrometry; cells not given
row,Substance,binding
1,ZO-2 (from UniProt Q9UDY2 1-1190),binds
2,α-catenin,binds
3,β-catenin (from UniProt P35222 1-781),binds
4,ZO-1 (from UniProt Q07157 1-1748),binds

# Target: T2, sterile 20-like kinase MST2 (UniProt Q13188)
# T2 sequence: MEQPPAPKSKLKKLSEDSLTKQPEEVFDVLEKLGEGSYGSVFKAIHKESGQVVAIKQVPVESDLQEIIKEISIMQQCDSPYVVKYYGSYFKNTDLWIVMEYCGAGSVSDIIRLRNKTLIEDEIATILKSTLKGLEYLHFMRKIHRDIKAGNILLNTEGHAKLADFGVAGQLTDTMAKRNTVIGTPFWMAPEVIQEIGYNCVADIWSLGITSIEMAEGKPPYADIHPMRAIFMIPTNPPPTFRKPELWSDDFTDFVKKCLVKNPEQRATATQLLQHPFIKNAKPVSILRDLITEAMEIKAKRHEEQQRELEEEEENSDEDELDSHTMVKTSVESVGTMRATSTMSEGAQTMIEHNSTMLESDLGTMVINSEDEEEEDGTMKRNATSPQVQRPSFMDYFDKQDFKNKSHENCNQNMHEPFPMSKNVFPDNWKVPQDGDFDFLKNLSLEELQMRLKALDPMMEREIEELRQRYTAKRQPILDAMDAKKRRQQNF
# Test: affinity purification with mass spectrometry; MST2 coprecipitates from HepG2 cell lysates, DIA-MS; cells cultured under LCD or HCD conditions
row,Substance,binding
1,microtubule affinity-regulating kinase 3 (from UniProt P27448 1-753) (enzyme),binds
2,microtubule affinity-regulating kinase 2 (from UniProt Q7KZI7 1-788) (enzyme),binds

# Target: T3, NUMB1 (bait of the NUMB1 coprecipitates analysed by mass spectrometry) (UniProt P49757)
# T3 sequence: T1 sequence
# Test: affinity purification with mass spectrometry; NUMB1 coprecipitates analysed by mass spectrometry; cells not given
row,Substance,binding
1,MARK2 (in NUMB1 coprecipitates) (from UniProt Q7KZI7 1-788) (enzyme),binds
2,MARK3 (in NUMB1 coprecipitates) (from UniProt P27448 1-753) (enzyme),binds
3,MARK1 (in NUMB1 coprecipitates) (from UniProt Q9P0L2 1-795) (enzyme),binds

# — PMC10575737
